From patent EP3750892A1, “NOVEL 5-CYCLOPROPYL-FURO[3,4-C]PYRIDINE-3,4(1H,5H)-DIONE 1,1' SUBSTITUTED DERIVATIVES AND THEIR USES” (Yerevan State University, priority 2019, dated 2020)
Some entries share one result that the patent states for a list of compounds.

What follows are compounds tested on cellular response to IFN-α (assay: ISRE-Luc reporter assay: amplification of cellular response to IFN-α). Settings: HEK-293 ISRE-Luc (STING 37 cell line), IFN-α 150 IU/mL.
Format: cell-based
Method: Cells were cultured at 37°C and 5% CO2 in Dulbecco's modified Eagle's Medium (DMEM; Sigma-Aldrich) containing 10% fetal calf serum (FCS), penicillin and streptomycin. Experiments were performed on HEK-293 cells stably transfected with the ISRE-Luciferase reporter gene (ISRE-Luc), with or without NanoLuc as an additional reporter gene (Lucas-Hourani et al., 2013; Hayek et al., 2019).
Reporter cells were incubated with increasing concentrations of candidates DHODH inhibitors diluted in DMSO in the presence or not of recombinant IFN-α (150 IU/mL). Recombinant IFN-α was from Sigma-Aldrich or PBL Assay Science. Luciferase activity was quantified 24 h later.
To confirm that modulation of IFN-α is related to DHDOH inhibition by compounds of the invention, the same experiments were performed by adding either uridine (pyrimidine derivated nucleoside), dihydroorotate (DHO, the substrate od DHODH in pyrimidine de novo biosynthesis pathway) or orotate (the product of ubiquinone-mediated oxidation of DHO catalysed by DHODH) together with compound of the invention. uridine, orotate, and DHO are all from Sigma Aldrich.
Firefly luciferase expression in culture wells was measured using the Bright-Glo (Promega) or Britelite plus reagents (PerkinElmer), according to the manufacturer's recommendations. For each concentration, three independent experiments were performed.
Compounds were tested for their ability to boost cellular response to IFN-α using ISRE-Luc reporter cells.
For `CC1(CCCc2cccs2)OC(=O)c2c1ccn(C1CC1)c2=O` (stereo not drawn) [Compound 7, 5-cyclopropyl-1-methyl-1-(3-(thiophen-2-yl)propyl)furo[3,4-c]pyridine-3,4(1H,5H)-dione], the “amplification of cellular response to IFN-α” value (from here on “amplification”) was “effective DHODH inhibitor”. With `CC1(CCCc2ccccc2)OC(=O)c2c1ccn(C1CC1)c2=O` (stereo not drawn) [Compound 8, 5-cyclopropyl-1-methyl-1-(3-phenylpropyl)furo[3,4-c]pyridine-3,4(1H,5H)-dione] the “amplification” value was “effective DHODH inhibitor”. In the case of `CC1(CCCc2ccc(F)cc2)OC(=O)c2c1ccn(C1CC1)c2=O` (stereo not drawn) [Compound 9, 5-cyclopropyl-1-(3-(4-fluorophenyl)propyl)-1-methylfuro[3,4-c]pyridine-3,4(1H,5H)-dione], the “amplification” value is reported as “effective DHODH inhibitor”. With `CC1(CCCc2cccnc2)OC(=O)c2c1ccn(C1CC1)c2=O` (stereo not drawn) [Compound 10, 5-cyclopropyl-1-methyl-1-(3-(pyridin-3-yl)propyl)furo[3,4-c]pyridine-3,4(1H,5H)-dione] the “amplification” value was “effective DHODH inhibitor”. `CC1(CCCc2ccncc2)OC(=O)c2c1ccn(C1CC1)c2=O` (stereo not drawn) [Compound 11, 5-cyclopropyl-1-methyl-1-(3-(pyridin-4-yl)propyl)furo[3,4-c]pyridine-3,4(1H,5H)-dione] was tested, and the “amplification” value was “effective DHODH inhibitor”. In the case of `CC1(CCCc2ccccn2)OC(=O)c2c1ccn(C1CC1)c2=O` (stereo not drawn) [Compound 12, 5-cyclopropyl-1-methyl-1-(3-(pyridin-2-yl)propyl)furo[3,4-c]pyridine-3,4(1H,5H)-dione], the “amplification” value is reported as “effective DHODH inhibitor”. In the case of `CC1(CCCc2ccc3ccccc3c2)OC(=O)c2c1ccn(C1CC1)c2=O` (stereo not drawn) [Compound 13, 5-cyclopropyl-1-methyl-1-(3-(naphthalen-2-yl)propyl)furo[3,4-c]pyridine-3,4(1H,5H)-dione], the “amplification” value is reported as “effective DHODH inhibitor”. In the case of `CC1(CCCc2cccc3ccccc23)OC(=O)c2c1ccn(C1CC1)c2=O` (stereo not drawn) [Compound 14, 5-cyclopropyl-1-methyl-1-(3-(naphthalen-1-yl)propyl)furo[3,4-c]pyridine-3,4(1H,5H)-dione], the “amplification” value is reported as “effective DHODH inhibitor”. `CN1C=C(CCCC2(C)OC(=O)c3c2ccn(C2CC2)c3=O)C2C=CC=CC21` (stereo not drawn) [Compound 15, 5-cyclopropyl-1-methyl-1-(3-(1-methyl-3a,7a-dihydro-1H-indol-3-yl)propyl)furo[3,4-c]pyridine-3,4(1H,5H)-dione] was tested, and the “amplification” value was “effective DHODH inhibitor”. `Cn1ccc(CCCC2(C)OC(=O)c3c2ccn(C2CC2)c3=O)c1` (stereo not drawn) [Compound 16, 5-cyclopropyl-1-methyl-1-(3-(1-methyl-1H-pyrrol-3-yl)propyl)furo[3,4-c]pyridine-3,4(1H,5H)-dione] was tested, and the “amplification” value was “effective DHODH inhibitor”. `CC1(CCCc2ccoc2)OC(=O)c2c1ccn(C1CC1)c2=O` (stereo not drawn) [Compound 17, 5-cyclopropyl-1-(3-(furan-3-yl)propyl)-1-methylfuro[3,4-c]pyridine-3,4(1H,5H)-dione] was tested, and the “amplification” value was “effective DHODH inhibitor”. In the case of `CC1(CCCc2ccsc2)OC(=O)c2c1ccn(C1CC1)c2=O` (stereo not drawn) [Compound 18, 5-cyclopropyl-1-methyl-1-(3-(thiophen-3-yl)propyl)furo[3,4-c]pyridine-3,4(1H,5H)-dione], the “amplification” value is reported as “effective DHODH inhibitor”. In the case of `CC1(Cc2ccccc2)OC(=O)c2c1ccn(C1CC1)c2=O` (stereo not drawn) [Compound 19, 1-benzyl-5-cyclopropyl-1-methylfuro[3,4-c]pyridine-3,4(1H,5H)-dione], the “amplification” value is reported as “effective DHODH inhibitor”. `CC1(CCCCc2ccccc2)OC(=O)c2c1ccn(C1CC1)c2=O` (stereo not drawn) [Compound 20, 5-cyclopropyl-1-methyl-1-(4-phenylbutyl)furo[3,4-c]pyridine-3,4(1H,5H)-dione] was tested, and the “amplification” value was “effective DHODH inhibitor”. In the case of `CC(CCC1(C)OC(=O)c2c1ccn(C1CC1)c2=O)c1ccccc1` (stereo not drawn) [Compound 21, 5-cyclopropyl-1-methyl-1-(3-phenylbutyl)furo[3,4-c]pyridine-3,4(1H,5H)-dione], the “amplification” value is reported as “effective DHODH inhibitor”. For `CC1(CCc2ccncc2)OC(=O)c2c1ccn(C1CC1)c2=O` (stereo not drawn) [Compound 22, 5-cyclopropyl-1-methyl-1-(2-(pyridin-4-yl)ethyl)furo[3,4-c]pyridine-3,4(1H,5H)-dione], the “amplification” value was “effective DHODH inhibitor”. For `CC1(CCc2cccnc2)OC(=O)c2c1ccn(C1CC1)c2=O` (stereo not drawn) [Compound 23, 5-cyclopropyl-1-methyl-1-(2-(pyridin-3-yl)ethyl)furo[3,4-c]pyridine-3,4(1H,5H)-dione], the “amplification” value was “effective DHODH inhibitor”. With `CC1(CCc2ccccn2)OC(=O)c2c1ccn(C1CC1)c2=O` (stereo not drawn) [Compound 24, 5-cyclopropyl-1-methyl-1-(2-(pyridin-2-yl)ethyl)furo[3,4-c]pyridine-3,4(1H,5H)-dione] the “amplification” value was “effective DHODH inhibitor”. For `CC1(CCc2ccc3ccccc3c2)OC(=O)c2c1ccn(C1CC1)c2=O` (stereo not drawn) [Compound 25, 5-cyclopropyl-1-methyl-1-(2-(naphthalen-2-yl)ethyl)furo[3,4-c]pyridine-3,4(1H,5H)-dione], the “amplification” value was “effective DHODH inhibitor”. With `CC1(CCc2cccc3ccccc23)OC(=O)c2c1ccn(C1CC1)c2=O` (stereo not drawn) [Compound 26, 5-cyclopropyl-1-methyl-1-(2-(naphthalen-1-yl)ethyl)furo[3,4-c]pyridine-3,4(1H,5H)-dione] the “amplification” value was “effective DHODH inhibitor”. With `CN1C=C(CCC2(C)OC(=O)c3c2ccn(C2CC2)c3=O)C2C=CC=CC21` (stereo not drawn) [Compound 27, 5-cyclopropyl-1-methyl-1-(2-(1-methyl-3a,7a-dihydro-1H-indol-3-yl)ethyl)furo[3,4-c]pyridine-3,4(1H,5H)-dione] the “amplification” value was “effective DHODH inhibitor”. In the case of `CC1(CCc2cccs2)OC(=O)c2c1ccn(C1CC1)c2=O` (stereo not drawn) [Compound 28, 5-cyclopropyl-1-methyl-1-(2-(thiophen-2-yl)ethyl)furo[3,4-c]pyridine-3,4(1H,5H)-dione], the “amplification” value is reported as “effective DHODH inhibitor”. In the case of `CC1(CCc2ccco2)OC(=O)c2c1ccn(C1CC1)c2=O` (stereo not drawn) [Compound 29, 5-cyclopropyl-1-(2-(furan-2-yl)ethyl)-1-methylfuro[3,4-c]pyridine-3,4(1H,5H)-dione], the “amplification” value is reported as “effective DHODH inhibitor”. With `Cn1cccc1CCC1(C)OC(=O)c2c1ccn(C1CC1)c2=O` (stereo not drawn) [Compound 30, 5-cyclopropyl-1-methyl-1-(2-(1-methyl-1H-pyrrol-2-yl)ethyl)furo[3,4-c]pyridine-3,4(1H,5H)-dione] the “amplification” value was “effective DHODH inhibitor”. `CC1(CCc2ccc(F)cc2)OC(=O)c2c1ccn(C1CC1)c2=O` (stereo not drawn) [Compound 31, 5-cyclopropyl-1-(4-fluorophenethyl)-1-methylfuro[3,4-c]pyridine-3,4(1H,5H)-dione] was tested, and the “amplification” value was “effective DHODH inhibitor”. For `COc1ccc(CCC2(C)OC(=O)c3c2ccn(C2CC2)c3=O)cc1` (stereo not drawn) [Compound 32, 5-cyclopropyl-1-(4-methoxyphenethyl)-1-methylfuro[3,4-c]pyridine-3,4(1H,5H)-dione], the “amplification” value was “effective DHODH inhibitor”. In the case of `CC1(CCc2ccc([N+](=O)[O-])cc2)OC(=O)c2c1ccn(C1CC1)c2=O` (stereo not drawn) [Compound 33, 5-cyclopropyl-1-methyl-1-(4-nitrophenethyl)furo[3,4-c]pyridine-3,4(1H,5H)-dione], the “amplification” value is reported as “effective DHODH inhibitor”.
